Among the data in article doi:10.1101/2025.06.30.662483 are binding values, retold here.

By UniProt entry, the sequences of proteins in these tests, tags left out. Where a name states a change or a piece, a line headed by the entry shows the natural chain unless it says otherwise.
UniProt Q92793: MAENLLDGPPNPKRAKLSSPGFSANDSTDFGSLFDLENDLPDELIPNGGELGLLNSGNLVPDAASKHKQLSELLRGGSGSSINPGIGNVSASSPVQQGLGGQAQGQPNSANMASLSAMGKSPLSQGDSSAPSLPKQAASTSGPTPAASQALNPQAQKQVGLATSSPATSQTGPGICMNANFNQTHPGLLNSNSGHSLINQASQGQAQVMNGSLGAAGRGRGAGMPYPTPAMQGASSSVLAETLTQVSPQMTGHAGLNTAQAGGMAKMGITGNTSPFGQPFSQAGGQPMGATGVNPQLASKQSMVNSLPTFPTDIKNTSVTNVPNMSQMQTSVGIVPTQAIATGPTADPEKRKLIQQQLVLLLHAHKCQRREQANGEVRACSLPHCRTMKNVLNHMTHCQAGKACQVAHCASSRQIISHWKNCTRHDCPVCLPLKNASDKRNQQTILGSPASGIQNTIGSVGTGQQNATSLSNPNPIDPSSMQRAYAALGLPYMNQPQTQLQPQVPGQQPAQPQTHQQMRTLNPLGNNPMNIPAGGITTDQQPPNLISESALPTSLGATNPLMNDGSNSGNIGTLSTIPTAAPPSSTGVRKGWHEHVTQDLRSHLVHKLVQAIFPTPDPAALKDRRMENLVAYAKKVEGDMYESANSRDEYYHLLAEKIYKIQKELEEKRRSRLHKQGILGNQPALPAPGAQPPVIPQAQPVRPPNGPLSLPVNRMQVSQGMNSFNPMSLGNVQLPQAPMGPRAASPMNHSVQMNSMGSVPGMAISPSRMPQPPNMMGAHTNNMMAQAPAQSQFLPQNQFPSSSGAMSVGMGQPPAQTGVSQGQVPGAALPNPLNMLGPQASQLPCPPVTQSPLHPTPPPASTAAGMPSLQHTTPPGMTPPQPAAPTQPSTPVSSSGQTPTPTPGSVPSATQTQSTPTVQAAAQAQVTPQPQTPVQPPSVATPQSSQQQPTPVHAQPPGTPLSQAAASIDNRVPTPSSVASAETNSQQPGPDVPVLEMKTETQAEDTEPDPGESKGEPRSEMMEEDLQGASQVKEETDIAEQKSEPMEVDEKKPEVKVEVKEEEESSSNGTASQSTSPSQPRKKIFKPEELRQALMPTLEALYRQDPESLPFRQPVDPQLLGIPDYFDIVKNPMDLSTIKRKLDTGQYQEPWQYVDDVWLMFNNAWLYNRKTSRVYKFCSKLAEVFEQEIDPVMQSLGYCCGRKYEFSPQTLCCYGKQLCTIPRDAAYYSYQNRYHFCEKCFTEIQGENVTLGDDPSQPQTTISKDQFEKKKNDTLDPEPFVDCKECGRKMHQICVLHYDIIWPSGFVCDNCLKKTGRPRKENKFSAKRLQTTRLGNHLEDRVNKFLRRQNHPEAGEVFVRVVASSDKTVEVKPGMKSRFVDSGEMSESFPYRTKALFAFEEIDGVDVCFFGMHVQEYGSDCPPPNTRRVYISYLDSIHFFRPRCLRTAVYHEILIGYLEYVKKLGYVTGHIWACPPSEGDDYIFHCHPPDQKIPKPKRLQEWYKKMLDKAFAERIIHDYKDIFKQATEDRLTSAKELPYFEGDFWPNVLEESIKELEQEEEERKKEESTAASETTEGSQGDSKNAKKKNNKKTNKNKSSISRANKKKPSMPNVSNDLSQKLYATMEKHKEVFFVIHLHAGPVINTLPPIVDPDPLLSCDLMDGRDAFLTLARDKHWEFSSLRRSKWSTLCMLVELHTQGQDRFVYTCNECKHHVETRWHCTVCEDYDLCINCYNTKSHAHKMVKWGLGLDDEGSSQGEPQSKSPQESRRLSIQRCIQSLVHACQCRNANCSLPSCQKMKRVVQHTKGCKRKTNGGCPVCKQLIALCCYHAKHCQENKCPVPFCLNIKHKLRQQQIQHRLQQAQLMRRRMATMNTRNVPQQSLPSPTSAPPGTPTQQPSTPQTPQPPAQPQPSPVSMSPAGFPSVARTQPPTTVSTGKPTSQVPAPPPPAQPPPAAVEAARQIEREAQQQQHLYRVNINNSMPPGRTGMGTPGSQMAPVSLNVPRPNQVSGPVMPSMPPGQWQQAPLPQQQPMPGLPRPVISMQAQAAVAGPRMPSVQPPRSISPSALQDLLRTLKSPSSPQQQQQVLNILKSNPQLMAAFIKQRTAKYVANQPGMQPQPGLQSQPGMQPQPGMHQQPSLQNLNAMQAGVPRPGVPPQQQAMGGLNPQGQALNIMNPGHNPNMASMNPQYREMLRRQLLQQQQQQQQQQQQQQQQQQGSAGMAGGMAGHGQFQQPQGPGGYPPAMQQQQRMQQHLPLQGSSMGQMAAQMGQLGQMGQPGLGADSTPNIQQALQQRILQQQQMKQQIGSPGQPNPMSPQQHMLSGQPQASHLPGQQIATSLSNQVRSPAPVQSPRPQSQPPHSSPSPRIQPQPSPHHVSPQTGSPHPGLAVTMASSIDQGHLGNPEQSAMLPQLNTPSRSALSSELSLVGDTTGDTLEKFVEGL
UniProt Q09472: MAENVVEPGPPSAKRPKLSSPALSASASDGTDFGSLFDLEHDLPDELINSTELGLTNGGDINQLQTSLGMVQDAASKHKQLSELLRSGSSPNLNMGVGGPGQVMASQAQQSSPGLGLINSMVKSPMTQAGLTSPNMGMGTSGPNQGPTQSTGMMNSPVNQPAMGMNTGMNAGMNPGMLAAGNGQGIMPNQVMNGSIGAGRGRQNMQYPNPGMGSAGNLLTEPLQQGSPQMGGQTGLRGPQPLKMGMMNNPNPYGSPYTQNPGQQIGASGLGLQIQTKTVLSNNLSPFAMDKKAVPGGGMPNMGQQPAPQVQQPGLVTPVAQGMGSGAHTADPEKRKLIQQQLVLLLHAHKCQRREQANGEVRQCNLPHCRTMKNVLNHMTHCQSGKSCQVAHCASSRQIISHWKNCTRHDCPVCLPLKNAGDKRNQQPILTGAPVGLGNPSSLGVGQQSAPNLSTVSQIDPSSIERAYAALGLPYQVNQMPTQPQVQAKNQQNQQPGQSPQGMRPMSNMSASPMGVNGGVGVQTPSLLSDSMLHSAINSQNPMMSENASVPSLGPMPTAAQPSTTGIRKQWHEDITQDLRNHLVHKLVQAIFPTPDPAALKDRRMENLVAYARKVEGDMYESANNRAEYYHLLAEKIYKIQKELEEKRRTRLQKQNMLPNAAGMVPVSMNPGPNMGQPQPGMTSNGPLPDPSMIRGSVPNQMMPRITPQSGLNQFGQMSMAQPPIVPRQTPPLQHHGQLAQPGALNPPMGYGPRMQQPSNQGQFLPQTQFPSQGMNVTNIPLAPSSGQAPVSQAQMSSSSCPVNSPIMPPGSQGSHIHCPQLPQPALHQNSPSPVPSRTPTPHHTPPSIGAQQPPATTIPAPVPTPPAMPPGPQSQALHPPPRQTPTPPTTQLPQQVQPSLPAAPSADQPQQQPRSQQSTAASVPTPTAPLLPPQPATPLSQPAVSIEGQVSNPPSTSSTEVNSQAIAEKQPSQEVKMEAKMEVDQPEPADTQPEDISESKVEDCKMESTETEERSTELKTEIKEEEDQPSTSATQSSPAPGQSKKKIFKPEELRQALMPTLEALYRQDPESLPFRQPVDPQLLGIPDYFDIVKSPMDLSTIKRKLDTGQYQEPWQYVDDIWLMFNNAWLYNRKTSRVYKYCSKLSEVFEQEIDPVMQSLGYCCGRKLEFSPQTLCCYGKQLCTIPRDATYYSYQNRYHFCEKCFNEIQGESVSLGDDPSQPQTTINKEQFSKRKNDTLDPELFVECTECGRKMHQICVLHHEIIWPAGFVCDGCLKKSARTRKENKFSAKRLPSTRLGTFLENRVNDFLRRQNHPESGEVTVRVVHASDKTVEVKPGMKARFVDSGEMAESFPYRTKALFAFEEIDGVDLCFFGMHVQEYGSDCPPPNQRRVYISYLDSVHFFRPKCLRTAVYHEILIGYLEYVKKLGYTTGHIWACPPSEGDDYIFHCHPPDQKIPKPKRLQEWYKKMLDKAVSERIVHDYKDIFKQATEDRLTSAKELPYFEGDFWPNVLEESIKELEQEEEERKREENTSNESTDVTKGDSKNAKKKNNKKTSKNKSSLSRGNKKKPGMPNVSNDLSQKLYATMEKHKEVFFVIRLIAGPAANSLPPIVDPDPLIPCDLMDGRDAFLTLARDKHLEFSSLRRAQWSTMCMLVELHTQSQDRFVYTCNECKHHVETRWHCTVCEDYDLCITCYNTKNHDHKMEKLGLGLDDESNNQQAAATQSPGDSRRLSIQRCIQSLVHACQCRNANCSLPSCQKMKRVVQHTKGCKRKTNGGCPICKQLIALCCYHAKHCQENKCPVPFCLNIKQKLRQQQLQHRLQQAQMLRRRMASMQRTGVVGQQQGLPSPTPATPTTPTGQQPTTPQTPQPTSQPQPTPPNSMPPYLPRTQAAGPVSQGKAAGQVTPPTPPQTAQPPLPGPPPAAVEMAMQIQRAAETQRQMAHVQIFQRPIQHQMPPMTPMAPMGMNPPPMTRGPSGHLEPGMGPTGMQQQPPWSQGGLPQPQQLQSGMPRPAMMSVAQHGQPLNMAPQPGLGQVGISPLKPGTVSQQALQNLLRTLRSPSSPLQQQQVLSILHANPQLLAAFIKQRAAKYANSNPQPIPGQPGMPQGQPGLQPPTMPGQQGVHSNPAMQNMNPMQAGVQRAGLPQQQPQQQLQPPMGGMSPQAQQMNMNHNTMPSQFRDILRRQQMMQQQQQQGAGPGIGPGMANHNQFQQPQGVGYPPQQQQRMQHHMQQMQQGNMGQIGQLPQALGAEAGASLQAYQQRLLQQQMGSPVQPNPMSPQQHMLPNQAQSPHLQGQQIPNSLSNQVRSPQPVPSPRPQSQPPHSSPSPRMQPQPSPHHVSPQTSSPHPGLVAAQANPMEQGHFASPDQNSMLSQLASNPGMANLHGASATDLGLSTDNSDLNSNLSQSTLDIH

Test [1] addresses GFP-tagged ΔKBR3-PARP7 (human) (UniProt Q7Z3E1). Briefly: co-IP.
Test [2] concerns the target T1, GFP-tagged WT-PARP7 (human) (UniProt Q7Z3E1).
T1 sequence: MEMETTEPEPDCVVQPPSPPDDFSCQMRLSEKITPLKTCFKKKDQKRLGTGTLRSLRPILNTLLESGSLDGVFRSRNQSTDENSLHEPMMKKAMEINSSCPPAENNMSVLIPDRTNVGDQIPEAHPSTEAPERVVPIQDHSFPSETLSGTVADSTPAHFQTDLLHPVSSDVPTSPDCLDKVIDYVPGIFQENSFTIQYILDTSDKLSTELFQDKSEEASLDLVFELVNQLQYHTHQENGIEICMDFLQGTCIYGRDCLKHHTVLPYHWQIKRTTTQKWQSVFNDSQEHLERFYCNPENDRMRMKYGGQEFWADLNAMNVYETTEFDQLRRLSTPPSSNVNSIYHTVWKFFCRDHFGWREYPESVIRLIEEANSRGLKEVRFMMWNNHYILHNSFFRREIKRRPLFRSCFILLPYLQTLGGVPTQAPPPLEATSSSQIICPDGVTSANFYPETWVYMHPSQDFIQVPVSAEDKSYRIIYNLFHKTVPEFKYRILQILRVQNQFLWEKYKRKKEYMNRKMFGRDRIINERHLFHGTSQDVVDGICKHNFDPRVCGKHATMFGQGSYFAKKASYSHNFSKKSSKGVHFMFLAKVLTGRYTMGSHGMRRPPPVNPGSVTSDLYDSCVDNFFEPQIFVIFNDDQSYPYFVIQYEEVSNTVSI
In words: co-IP.

No constants are given. Whether binding was seen depends on the method and setting. Binding seen in cells or lysates may run through a third protein. Some results given as binding are weak or reduced against the parent protein; the word gives no strength. For some of these results: Tags and fused reporters may be left off the sequences shown.

“CBP (CREB-binding protein) (from UniProt Q92793 1-2442)”: the binding entry in test [1] is given as “no binding”; in test [2] it was “binds”.

“p300 (E1A-binding protein p300) (from UniProt Q09472 1-2414)”: the results for the binding entry in test [1] and in test [2] were “no binding” and “binds”, respectively.
